US9718861B2 (Universitaet Leipzig, priority 2011, dated 2017)
Some peptides are written in HELM: one residue between dots, names in brackets for other building blocks, links after the first $.

Test: general procedure: Fmoc solid-phase peptide synthesis; Rink amide resin (21 mg, loading 0.63 mmol/g); DIC/HOBt
Details: whole synthesis, analytical RP-HPLC, 220 nm, scale of the general procedure 21 mg resin

Substance	final HPLC purity [%]
K-(D-1-Nal)-(Cha)-wLL-NH2	>95
K-(D-1-Nal)-(D-Phe)-wLL-NH2	>95
K-(D-1-Nal)-(L-Nva)-wLL-NH2	>95
K-(D-1-Nal)-F-(D-1-Nal)-LL-NH2	>95
PEPTIDE1{K.[D-Trp(Me)].F.[dW].L.L.[am]}$$$$V2.0	>95
PEPTIDE1{K.[dW].F.[D-Bip].L.L.[am]}$$$$V2.0	95
PEPTIDE1{K.[dW].F.[D-Bpa].L.L.[am]}$$$$V2.0	>95
PEPTIDE1{K.[dW].F.[D-Dip].L.L.[am]}$$$$V2.0	>95
